Consider one molecule from PMC10454331.

Assay [1] has as its target IgG Fc binding protein (Fcgbp), murine (mouse (endogenous in murine duodenum and caecum/colon)). The experiment in a line: SEC + native gel or EMSA; extract of murine caecum plus total colon on Superdex 75 HL (20 mM Tris-HCl pH 7.0, 30 mM NaCl); high-molecular-mass fractions on 1% native AgGE with Western blots for Tff3, Fcgbp and Tff1. A general note: A gel shift assay detects complexes by their altered migration in electrophoresis.

The target is the same in assay [2]. The experiment in a line: SEC + native gel or EMSA; murine duodenal extract (four animals) on Superdex 75 HL (20 mM Tris-HCl pH 7.0, 30 mM NaCl); high-molecular-mass fractions B8 and B9 on 1% native AgGE with Western blots for Tff3, Fcgbp and Tff1; SDS-PAGE under reducing and non-reducing conditions.

Results are given in words; binding and its absence hold for the method and conditions named. Binding can be weak; no strength is given.

B1: Tff3 (trefoil factor family peptide 3), murine (protein, UniProt Q62395 23-81)
chain: ADYVGLSPSQCMVPANVRVDCGYPSVTSEQCNNRGCCFDSSIPNVPWCFKPLQETECTF
Regarding B1, the binding entry in assay [1] and in assay [2] was “binds” in each case.
